Values of other authors in patent US20140314729A1, “NUTRACEUTICAL FORMULATION FOR TREATMENT OF ELEVATED CHOLESTEROL AND CARDIOVASCULAR DISEASE” (Creative Medical Health Inc., priority 2013, published 2014).

Test system: rats
Settings: 80 mg/kg given alone, after 4 weeks

In the case of `CC(C)c1c(C(=O)Nc2ccccc2)c(-c2ccccc2)c(-c2ccc(F)cc2)n1CC[C@@H](O)C[C@@H](O)CC(=O)O` [atorvastatin], the hepatotoxicity is given as “induced hepatotoxicity”.
